Data as given in PubChem BioAssay AID1224831 (NIAID, 2016)

- Assay: 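Genes that support or restrain LPS-induced TNF-alpha reporter activity in macrophage-like cells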 (follow-up of hits)
- Cell system: human THP-1 B5 monocytic leukaemia cells carrying a TNF promoter luciferase reporter, made macrophage-like with PMA
- Reagent: single siRNA against human genes, 50 nM
- Duration: about 68 h of knock-down, then 4 h LPS
- Challenge: LPS (Salmonella minnesota, TLR-grade) at 10 ng/ml for 4 h; PMA 5 ng/ml present during knock-down
- Detection: 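Firefly to renilla luciferase ratio of a TNF promoter reporter after 4 h LPS, scaled to plate median, turned into robust z-score, averaged over replicates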
- Direction: TNF reporter z-score: higher = stronger LPS-induced TNF reporter signal; z-score, median over gene's siRNAs: higher = stronger TNF reporter signal across the gene's siRNAs
- Call rule: 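Active when the replicate mean z-score is about -1 or lower, or about 1.5 or higher; lowered and raised TNF reporter signal both count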
- Meaning of the calls: active = changed TNF reporter (either direction); inactive = little change
Here is a random part of about 3,500 reagents. Over the whole deposit, 731 (21%) got an active call. 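Active means either lowered or raised reporter signal; the gene-median score did not drive the per-siRNA calls.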 Reagents against one gene are numbered here.

Against DENND5A #1 the deposit lists TNF reporter z-score, replicate mean 0.61; z-score, median over gene's siRNAs 0.33; inactive.
With knock-down of DENND5A #2 the results were TNF reporter z-score, replicate mean 0.24; z-score, median over gene's siRNAs 0.33; inactive.
DENND5A #3 showed TNF reporter z-score, replicate mean -0.71; z-score, median over gene's siRNAs 0.33; inactive.
DENND5A #4 scored TNF reporter z-score, replicate mean 0.42; z-score, median over gene's siRNAs 0.33; inactive.
After knock-down of DENND5A #5 the results were TNF reporter z-score, replicate mean -0.88; z-score, median over gene's siRNAs 0.33; inactive.
Knock-down of DENND5A #6 came out at: TNF reporter z-score, replicate mean 1.07; z-score, median over gene's siRNAs 0.33; inactive.
After knock-down of UBL5 #1 the results were TNF reporter z-score, replicate mean -1.43; z-score, median over gene's siRNAs -1.35; active.
After knock-down of UBL5 #2, the screen gave TNF reporter z-score, replicate mean -1.37; z-score, median over gene's siRNAs -1.35; active.
After knock-down of UBL5 #3, the record shows TNF reporter z-score, replicate mean -1.9; z-score, median over gene's siRNAs -1.35; active.
UBL5 #4 scored TNF reporter z-score, replicate mean -0.27; z-score, median over gene's siRNAs -1.35; inactive.
Against UBL5 #5 the deposit lists TNF reporter z-score, replicate mean -0.96; z-score, median over gene's siRNAs -1.35; inactive.
After knock-down of UBL5 #6 the results were TNF reporter z-score, replicate mean -1.33; z-score, median over gene's siRNAs -1.35; active.
Against PIH1D2 #1, the values are TNF reporter z-score, replicate mean -0.36; z-score, median over gene's siRNAs 0.235; inactive.
For PIH1D2 #2, the values are TNF reporter z-score, replicate mean 1.52; z-score, median over gene's siRNAs 0.235; active.
Silencing of PIH1D2 #3 came out at: TNF reporter z-score, replicate mean 1.82; z-score, median over gene's siRNAs 0.235; active.
After knock-down of PIH1D2 #4 the results were TNF reporter z-score, replicate mean 0.37; z-score, median over gene's siRNAs 0.235; inactive.
After knock-down of PIH1D2 #5, the record shows TNF reporter z-score, replicate mean 0.1; z-score, median over gene's siRNAs 0.235; inactive.
Depletion of PIH1D2 #6 came out at: TNF reporter z-score, replicate mean -0.16; z-score, median over gene's siRNAs 0.235; inactive.

Hits, among the entries above:
UBL5 #1 | TNF reporter z-score, replicate mean: -1.43; z-score, median over gene's siRNAs: -1.35; outcome: active
UBL5 #2 | TNF reporter z-score, replicate mean: -1.37; z-score, median over gene's siRNAs: -1.35; outcome: active
UBL5 #3 | TNF reporter z-score, replicate mean: -1.9; z-score, median over gene's siRNAs: -1.35; outcome: active
UBL5 #6 | TNF reporter z-score, replicate mean: -1.33; z-score, median over gene's siRNAs: -1.35; outcome: active
PIH1D2 #2 | TNF reporter z-score, replicate mean: 1.52; z-score, median over gene's siRNAs: 0.235; outcome: active
PIH1D2 #3 | TNF reporter z-score, replicate mean: 1.82; z-score, median over gene's siRNAs: 0.235; outcome: active

The results go on:
After knock-down of CHEK1 #1 the results were TNF reporter z-score, replicate mean 0.52; z-score, median over gene's siRNAs 1.32; inactive.
Depletion of CHEK1 #2 gave: TNF reporter z-score, replicate mean 1.31; z-score, median over gene's siRNAs 1.32; inactive.
For CHEK1 #3, the values are TNF reporter z-score, replicate mean 1.34; z-score, median over gene's siRNAs 1.32; inactive.
Silencing of CHEK1 #4 came out at: TNF reporter z-score, replicate mean -0.35; z-score, median over gene's siRNAs 1.32; inactive.
Silencing of CHEK1 #5 came out at: TNF reporter z-score, replicate mean 3.31; z-score, median over gene's siRNAs 1.32; active.
Knock-down of CHEK1 #6 gave: TNF reporter z-score, replicate mean 2.67; z-score, median over gene's siRNAs 1.32; active.
After knock-down of CCND3 #1, the record shows TNF reporter z-score, replicate mean 0.56; z-score, median over gene's siRNAs 0.52; inactive.
CCND3 #2 gave TNF reporter z-score, replicate mean 0.48; z-score, median over gene's siRNAs 0.52; inactive.
For CCND3 #3, the entry reads TNF reporter z-score, replicate mean -0.26; z-score, median over gene's siRNAs 0.52; inactive.
Knock-down of CCND3 #4 came out at: TNF reporter z-score, replicate mean 0.15; z-score, median over gene's siRNAs 0.52; inactive.
After knock-down of CCND3 #5, the screen gave TNF reporter z-score, replicate mean 4.43; z-score, median over gene's siRNAs 0.52; active.
After knock-down of CCND3 #6, the screen gave TNF reporter z-score, replicate mean 1.41; z-score, median over gene's siRNAs 0.52; inactive.
OR5M9 #1 scored TNF reporter z-score, replicate mean -0.35; z-score, median over gene's siRNAs -0.45; inactive.
Depletion of OR5M9 #2 resulted in: TNF reporter z-score, replicate mean -0.09; z-score, median over gene's siRNAs -0.45; inactive.
Knock-down of OR5M9 #3 came out at: TNF reporter z-score, replicate mean -0.56; z-score, median over gene's siRNAs -0.45; inactive.
OR5M9 #4 showed TNF reporter z-score, replicate mean 0.57; z-score, median over gene's siRNAs -0.45; inactive.
Depletion of OR5M9 #5 gave: TNF reporter z-score, replicate mean -1.12; z-score, median over gene's siRNAs -0.45; active.
Against OR5M9 #6, the entry reads TNF reporter z-score, replicate mean -0.55; z-score, median over gene's siRNAs -0.45; inactive.
With knock-down of TNFRSF10B #1 the results were TNF reporter z-score, replicate mean 1.11; z-score, median over gene's siRNAs 0.665; inactive.
After knock-down of TNFRSF10B #2, the record shows TNF reporter z-score, replicate mean 0.37; z-score, median over gene's siRNAs 0.665; inactive.
TNFRSF10B #3 scored TNF reporter z-score, replicate mean 0.96; z-score, median over gene's siRNAs 0.665; inactive.
Silencing of TNFRSF10B #4 came out at: TNF reporter z-score, replicate mean -0.76; z-score, median over gene's siRNAs 0.665; inactive.
Against TNFRSF10B #5, the entry reads TNF reporter z-score, replicate mean -0.25; z-score, median over gene's siRNAs 0.665; inactive.
Silencing of TNFRSF10B #6 came out at: TNF reporter z-score, replicate mean 2.43; z-score, median over gene's siRNAs 0.665; active.
